# About 4,200 (1.3%) of roughly 330,000 compounds were called active. These results got no clear call from the source, so the numbers are uncertain. The call rests on the fitted dose curve; in most records, active means well fitted activation curve with a large enough effect; inconclusive means small, poorly fitted or top-dose-only effect; inactive means no such curve, though single readings can be large or run the other way.
# Assay: qHTS screen for small molecules that induce genotoxicity in human embryonic kidney (HEK293T) cells expressing luciferase-tagged ELG1; further: nearly all actives have a fitted effect of over 60% in size
# Conditions: HEK293T ELG1-luciferase reporter, luminescence, 16 h
# From the text: NIH Molecular Libraries Probe Production Network [MLPCN] NIH Chemical Genomics Center [NCGC] MLPCN Grant: 1 R03 MH092164-01 Assay Provider: Kyungjae Myung, NHGRI, NIH Keywords: MLPCN, qHTS, NCGC, genotoxicity, cancer Assay Overview: Cancer cells divide rapidly compared to normal cells in the body. During cell division, cancer cells need to duplicate their genome by DNA replication. The failure of genome duplication leads to cancer cells' death. Therefore, inhibitors of DNA replication could specifically kill cancer cells. Based on this concept, many chemotherapeutic agents were developed and have been used to treat cancer patients. However, there are a limited number of agents available in the clinical setting, and some of those that do exist have low efficacy and severe side effects. […] With this in mind, we developed a quantitative high-throughput ELG1-luciferase reporter gene assay. […]
# Assay Protocol Summary: For genotoxicity screening, 2,000 cells in 5 uL/well were dispensed into white, solid-bottom 1536-well plates using a solenoid-based dispenser. […] 5 ul ONE-Glo (Promega) was then added to each plate and following a 30 min incubation at room temperature, luciferase activity was quantified on a ViewLux CCD-based plate reader.
# Potency means the concentration at half of the fitted maximal effect.
row,SMILES,Potency
1,O=[N+]([O-])c1ccc2c(c1)C=Nc1ccccc1O2,inconclusive: 23.1 µM
2,Cc1nc2ccc3ccccc3c2o1.O=[N+]([O-])c1cc([N+](=O)[O-])c(O)c([N+](=O)[O-])c1,inconclusive: 18.4 µM

# Source: PubChem BioAssay AID504466 (National Center for Advancing Translational Sciences (NCATS), 2011)
